Data set [1] in a line: ITC, metal binding to mb: Mn(II). Particulars: Mn(II) column, one-site fit, 25° C. How it is done: (§1) FIG. 14. Binding isotherm of 3.2 mM HgCl2 (A), HAuCl4 (B), AgNO3 (C) NiCl2 (D), ZnCl2 (E) or FeCl3 (F) into 400 μM mb (cell) aqueous solution at 25° C. Binding isotherm of 1.6 mM HAuCl4 (B). The curve fittings for two-site binding algorithm were used.
(§2) FIG. 15. Binding isotherm of 3.2 mM CdCl2 (A), CoCl2(B), FeCl3 (C), or MnCl2(D) into […] mb aqueous solution at 25° C. Curve fittings for one-site binding algorithm (B, D) or two-site binding algorithm (A, C) were used.
(§3) ITC was performed with following modifications from the previously described procedure (Choi et al., 2006). First, concentrations of the titrant and cell solutions were raised to 3.2 mM and 0.4 mM, respectively. Second, the interval between titrant injections were decreased to 600 s and the stirring rate decreased to 380 rpm.
Background: ITC needs no label: the signal is the heat of the interaction.

A short description of data set [2]: ITC, metal binding to mb: Pb(II). Particulars: Pb(II) column, one-site binding model. As for the experimental part:
as §1, §2, §3

A short description of data set [3]: ITC, metal binding to mb: Cd(II). The settings on record: Cd(II) column. How it is done: as §1, §2, §3
Data set [4] can be described thus: ITC, metal binding to mb: Zn(II). The settings on record: Zn(II) column. How it is done: as §1, §2, §3
For data set [5] the following is noted: Cu(II) column, cited from earlier work.
Data set [6] is described as follows: ITC, metal binding to mb: Hg(II). The settings on record: Hg(II) column. How it is done:
as §1, §2, §3

Data set [7] can be described thus: ITC, metal binding to mb: Ag(I). Particulars: Ag(I) column. As for the experimental part:
as §1, §2, §3

Data set [8] in a line: ITC, metal binding to mb: Co(II). The settings on record: Co(II) column, one-site fit, 25° C. How it is done:
as §1, §2, §3

The mark [9] stands for this setting: first site, two-site fit, 25° C.

Read-outs that look alike come from different tables or passages of the source.

For methanobactin [mb], the N1 in data set [1] is recorded as 0.54 ± 0.005 metal mb^−1; in data set [2], 0.61 ± 0.003 metal mb^−1; in data set [3] (setting [9]) it was 0.2 ± 0.07 metal mb^−1; in data set [3] (second site), 0.22 ± 0.01 metal mb^−1; in data set [4] (setting [9]), 0.41 ± 0.004 metal mb^−1; in data set [4] (second site) it was 0.13 ± 0.04 metal mb^−1. For the same substance, the N1 in data set [5] (first site) is 0.11 ± 0.003 metal mb^−1; in data set [5] (second site) it was 0.14 ± 0.01 metal mb^−1; in data set [6] (setting [9]) it was 0.25 ± 0.005 metal mb^−1; in data set [6] (second site), 0.42 ± 0.01 metal mb^−1; in data set [7] (setting [9]) it was 0.47 ± 0.006 metal mb^−1; in data set [7] (second site) it was 0.75 ± 0.007 metal mb^−1. Also, the N1 in data set [8] is on record as 0.49 ± 0.003 metal mb^−1. Further, the ΔH1 in data set [3] (setting [9]) was -3.15 ± 1.7 kcal/mol; in data set [3] (second site), -18.96 ± 1.04 kcal/mol; in data set [4] (setting [9]) it was -0.32 ± 0.01 kcal/mol; in data set [4] (second site) it was 2.40 ± 0.78 kcal/mol. Moreover, the ΔG1 in data set [4] (setting [9]) was -9.08 kcal/mol; in data set [4] (second site) it was -5.8 kcal/mol; in data set [7] (setting [9]) it was -10.1 kcal/mol; in data set [7] (second site) it was -7.74 kcal/mol. For the same substance, the ΔS1 in data set [4] (setting [9]) worked out at 29.4 cal mol^−1 deg^−1; in data set [4] (second site), 27.5 cal mol^−1 deg^−1.

Source of the values: patent US8735538B1, “Use of methanobactin” (priority 2006, dated 2014).
